This is an account of results in the odorant receptor screen of Mainland et al. (2015).

Values joined by “and” are separate entries in the source; they are usually repeats but may differ in a detail not shown here. Identical values can stand only once. This is one part of the list. Each value is one well over the wells without odorant, computed here; the data are noisy.

Some test systems named below: OR51A2 clone 1577; OR51B2 clone 1551; OR51B5 clone 1553; OR51B6 clone 1554; OR51D1 clone 1206; OR51E1 S11N clone 1532; OR51E1 clone 1129; OR51E2 clone 1205; OR51F2 clone 1330; OR51G1 clone 1165; OR51G2 clone 1199; OR51H1 clone 1187; OR51I1 clone 1555; OR51I2 clone 1133; OR51J1 R75H clone 1698; OR51L1 I281M clone 1535; OR51L1 clone 1183.
Holding throughout (test): odorant receptor activation (CRE luciferase / Renilla) (fold of no-odor wells); higher = more activation
What all share (conditions): 100 µM

Test [1] concerns OR51A4 G45C/L227P/R267G clone 1166.
The subject of test [2] is OR51B4 V36I/M147T clone 1552.
For test [3], the system named is OR51L1 T196I/A207V clone 1533.

As for `CC(C)C(=O)O` [isobutyric acid], the odorant receptor activation in the test with OR51A2 clone 1577 is 0.783; in [1] it was 0.825; in the test with OR51B2 clone 1551, 0.933; in [2] it was 0.946; with OR51B5 clone 1553 it was 1.08; with OR51B6 clone 1554, 1.15. Moreover, the odorant receptor activation is 0.85 with OR51D1 clone 1206; 1.11 and 1.04 with OR51E1 S11N clone 1532; 1.12 in the test on OR51E1 clone 1129; 1.42 in the test on OR51E2 clone 1205; 1.05 and 0.866 in the test on OR51F2 clone 1330; 0.877 with OR51G1 clone 1165. Moreover, the odorant receptor activation with OR51G2 clone 1199 was 1.07; with OR51H1 clone 1187, 0.909; with OR51I1 clone 1555, 0.821; with OR51I2 clone 1133, 0.764; with OR51J1 R75H clone 1698 it was 0.809; in the test with OR51L1 I281M clone 1535 it was 0.881 and 0.74. Moreover, the odorant receptor activation in [3] is 1.2 and 0.729; in the test with OR51L1 clone 1183 it was 0.869.

`C=CCc1ccc(OC)c(OC)c1` [eugenol methyl ether]: the odorant receptor activation with OR51A2 clone 1577 was 0.589; in test [1], 1.25; in the test with OR51B2 clone 1551 it was 0.737; in test [2] it was 0.86; in the test on OR51B5 clone 1553, 1.04; in the test with OR51B6 clone 1554, 0.532. Also, the odorant receptor activation in the test with OR51D1 clone 1206 is 1.36; with OR51E1 S11N clone 1532 it was 1.37; with OR51E1 clone 1129 it was 1.68; in the test with OR51E2 clone 1205 it was 1.52; in the test with OR51F2 clone 1330 it was 1.47; in the test with OR51G1 clone 1165, 1.51. Moreover, the odorant receptor activation with OR51G2 clone 1199 was found to be 1.4; in the test with OR51H1 clone 1187 it was 1.28; in the test with OR51I1 clone 1555, 1; in the test on OR51I2 clone 1133 it was 1.05; in the test on OR51J1 R75H clone 1698 it was 0.577; with OR51L1 I281M clone 1535, 1.47. Also, the odorant receptor activation in test [3] worked out at 1.7; in the test with OR51L1 clone 1183, 1.57.

With `CC(=O)OC1CC2CCC1(C)C2(C)C` (stereo not given) [isobornyl acetate], the odorant receptor activation came to 0.838 in the test with OR51A2 clone 1577; 1.02 in test [1]; 0.817 with OR51B2 clone 1551; 0.773 in [2]; 0.951 with OR51B5 clone 1553; 1.19 in the test with OR51B6 clone 1554. In addition, the odorant receptor activation in the test on OR51D1 clone 1206 was 0.812; in the test with OR51E1 S11N clone 1532, 0.84 and 0.996; in the test with OR51E1 clone 1129, 1.06; in the test on OR51E2 clone 1205, 1.01; in the test with OR51F2 clone 1330, 0.789 and 0.798; in the test on OR51G1 clone 1165, 1. The odorant receptor activation in the test with OR51G2 clone 1199 is 1.2; with OR51H1 clone 1187, 0.866; in the test with OR51I1 clone 1555, 0.907; in the test on OR51I2 clone 1133 it was 0.745; in the test on OR51J1 R75H clone 1698, 0.89; with OR51L1 I281M clone 1535 it was 1.1 and 0.909. In addition, the odorant receptor activation in test [3] was 1.38 and 0.786; with OR51L1 clone 1183, 0.87.

Turning to `CCCCCCCCCCC=O` [undecanal], the odorant receptor activation with OR51A2 clone 1577 was 1; in test [1] it was 0.882; with OR51B2 clone 1551 it was 0.994; in test [2], 1.02; in the test on OR51B5 clone 1553 it was 1; in the test on OR51B6 clone 1554 it was 1.71. The odorant receptor activation turned out to be 1.22 in the test with OR51D1 clone 1206; 1.02 in the test with OR51E1 S11N clone 1532; 1.31 in the test with OR51E1 clone 1129; 0.9 in the test on OR51E2 clone 1205; 0.748 in the test on OR51F2 clone 1330; 1.07 in the test on OR51G1 clone 1165. The odorant receptor activation with OR51G2 clone 1199 is 0.968; in the test with OR51H1 clone 1187, 0.831; with OR51I1 clone 1555 it was 5.91; in the test on OR51I2 clone 1133, 0.877; in the test with OR51J1 R75H clone 1698 it was 1.05; in the test with OR51L1 I281M clone 1535 it was 0.896. The odorant receptor activation in test [3] was 0.887; with OR51L1 clone 1183 it was 1.2.

With `CCCCCCCCCC=O` [decyl aldehyde], the odorant receptor activation in the test with OR51A2 clone 1577 is 0.941; in test [1] it was 1.18; in the test on OR51B2 clone 1551 it was 0.976; in test [2] it was 0.958; in the test with OR51B5 clone 1553, 1.06; with OR51B6 clone 1554, 1.15. The odorant receptor activation came out at 1.25 in the test with OR51D1 clone 1206; 1.33 in the test on OR51E1 S11N clone 1532; 1.31 in the test on OR51E1 clone 1129; 1.11 in the test on OR51E2 clone 1205; 1.31 with OR51F2 clone 1330; 1.1 in the test on OR51G1 clone 1165. Moreover, the odorant receptor activation was determined as 1.21 in the test on OR51G2 clone 1199; 0.949 in the test with OR51H1 clone 1187; 0.629 in the test with OR51I1 clone 1555; 1.1 in the test on OR51I2 clone 1133; 0.751 in the test with OR51J1 R75H clone 1698; 1.13 with OR51L1 I281M clone 1535. In addition, the odorant receptor activation was determined as 1.1 in test [3] and 1.34 in the test on OR51L1 clone 1183.

As for `C=CCc1ccc(OC(C)=O)c(OC)c1` [eugenol acetate], the odorant receptor activation in the test with OR51A2 clone 1577 worked out at 1.93; in test [1], 1.45; with OR51B2 clone 1551, 2.13; in [2], 1.99; with OR51B5 clone 1553, 1.79; in the test with OR51B6 clone 1554, 3.38. Besides, the odorant receptor activation came to 1.58 in the test on OR51D1 clone 1206; 1.34 in the test with OR51E1 S11N clone 1532; 1.24 with OR51E1 clone 1129; 1.8 in the test with OR51E2 clone 1205; 1.57 in the test with OR51F2 clone 1330; 2.17 with OR51G1 clone 1165. Also, the odorant receptor activation in the test on OR51G2 clone 1199 was determined as 1.9; in the test on OR51H1 clone 1187, 1.47; in the test with OR51I1 clone 1555, 1.81; in the test with OR51I2 clone 1133, 1.6; with OR51J1 R75H clone 1698, 2.25; in the test on OR51L1 I281M clone 1535 it was 1.84. Also, the odorant receptor activation was 2.26 in test [3] and 2.5 with OR51L1 clone 1183.

Consider `CC(=O)C(C)=O` [diacetyl], for which the odorant receptor activation came to 0.921 with OR51A2 clone 1577; 0.962 in test [1]; 0.894 in the test with OR51B2 clone 1551; 0.918 in [2]; 0.821 with OR51B5 clone 1553; 1.25 in the test with OR51B6 clone 1554. Also, the odorant receptor activation in the test on OR51D1 clone 1206 worked out at 1.11; with OR51E1 S11N clone 1532, 1.15; with OR51E1 clone 1129 it was 1.03; in the test on OR51E2 clone 1205, 0.986; in the test on OR51F2 clone 1330, 1.24; with OR51G1 clone 1165 it was 1.06. The odorant receptor activation in the test with OR51G2 clone 1199 came out at 1.3; in the test with OR51H1 clone 1187, 0.881; in the test on OR51I1 clone 1555 it was 0.966; in the test with OR51I2 clone 1133, 0.823; with OR51J1 R75H clone 1698 it was 0.753; in the test with OR51L1 I281M clone 1535, 1.3. For the same molecule, the odorant receptor activation was determined as 1.61 in [3] and 1.23 with OR51L1 clone 1183.
